The values below come from publication PMC7199855, “GRAF2, WDR44, and MICAL1 mediate Rab8/10/11–dependent export of E-cadherin, MMP14, and CFTR ΔF508” (The Journal of Cell Biology, 2020).

Assay [1] concerns the target T1, myc-MICAL1 (human) (UniProt Q8TDZ2).
T1 sequence: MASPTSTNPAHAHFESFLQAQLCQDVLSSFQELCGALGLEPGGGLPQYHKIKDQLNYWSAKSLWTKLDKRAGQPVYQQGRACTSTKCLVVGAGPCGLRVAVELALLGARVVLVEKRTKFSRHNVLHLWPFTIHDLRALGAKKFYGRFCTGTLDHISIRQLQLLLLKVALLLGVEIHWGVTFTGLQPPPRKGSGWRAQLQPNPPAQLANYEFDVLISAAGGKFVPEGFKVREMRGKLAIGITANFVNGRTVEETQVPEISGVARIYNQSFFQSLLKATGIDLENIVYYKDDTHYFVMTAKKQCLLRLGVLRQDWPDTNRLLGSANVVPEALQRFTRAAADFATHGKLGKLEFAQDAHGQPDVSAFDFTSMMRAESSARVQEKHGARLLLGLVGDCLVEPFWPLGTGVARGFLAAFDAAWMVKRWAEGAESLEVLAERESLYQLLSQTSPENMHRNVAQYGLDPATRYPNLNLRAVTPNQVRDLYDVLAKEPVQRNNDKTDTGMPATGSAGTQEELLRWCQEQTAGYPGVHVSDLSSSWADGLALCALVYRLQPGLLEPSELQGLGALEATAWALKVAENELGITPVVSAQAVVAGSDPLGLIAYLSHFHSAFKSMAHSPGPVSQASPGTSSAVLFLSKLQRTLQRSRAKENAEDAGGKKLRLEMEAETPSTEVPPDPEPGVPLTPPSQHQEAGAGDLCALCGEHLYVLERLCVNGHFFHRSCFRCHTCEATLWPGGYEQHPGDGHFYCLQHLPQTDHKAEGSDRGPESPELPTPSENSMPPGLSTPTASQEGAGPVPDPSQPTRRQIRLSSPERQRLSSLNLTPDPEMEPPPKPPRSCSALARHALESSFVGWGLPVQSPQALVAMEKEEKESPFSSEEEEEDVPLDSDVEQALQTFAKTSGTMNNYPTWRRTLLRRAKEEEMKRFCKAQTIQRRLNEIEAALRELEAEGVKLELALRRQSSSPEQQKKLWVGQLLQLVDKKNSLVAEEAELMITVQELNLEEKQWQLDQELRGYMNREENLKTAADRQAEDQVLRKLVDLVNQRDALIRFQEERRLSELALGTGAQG
The assay is described as follows: co-IP; transfected 293T, IP with α-myc antibody and Protein G Sepharose; 20 mM Hepes pH 7.4, 150 mM NaCl, 2 mM EDTA, 1% IGEPAL CA-630; Western blot.

The target in assay [2] is T2, myc–MICAL1 G3W (human) (UniProt Q8TDZ2).
T2 sequence: T1 sequence with G91W, G93W, G96W
Described as above.

Numbering of substitutions follows the chain as printed. These are yes or no findings as the source states them, for the method shown. Binding seen in cells or lysates may run through a third protein. Some entries that bind do so weakly or less than the wild type. Where a sequence is shown, tags or fusion partners need not be part of it.

B1: GRAF1b-GFP (protein, UniProt Q9UNA1-2 1-759)
chain: MGLPALEFSDCCLDSPHFRETLKSHEAELDKTNKFIKELIKDGKSLISALKNLSSAKRKFADSLNEFKFQCIGDAETDDEMCIARSLQEFATVLRNLEDERIRMIENASEVLITPLEKFRKEQIGAAKEAKKKYDKETEKYCGILEKHLNLSSKKKESQLQEADSQVDLVRQHFYEVSLEYVFKVQEVQERKMFEFVEPLLAFLQGLFTFYHHGYELAKDFGDFKTQLTISIQNTRNRFEGTRSEVESLMKKMKENPLEHKTISPYTMEGYLYVQEKRHFGTSWVKHYCTYQRDSKQITMVPFDQKSGGKGGEDESVILKSCTRRKTDSIEKRFCFDVEAVDRPGVITMQALSEEDRRLWMEAMDGREPVYNSNKDSQSEGTAQLDSIGFSIIRKCIHAVETRGINEQGLYRIVGVNSRVQKLLSVLMDPKTASETETDICAEWEIKTITSALKTYLRMLPGPLMMYQFQRSFIKAAKLENQESRVSEIHSLVHRLPEKNRQMLQLLMNHLANVANNHKQNLMTVANLGVVFGPTLLRPQEETVAAIMDIKFQNIVIEILIENHEKIFNTVPDMPLTNAQLHLSRKKSSDSKPPSCSERPLTLFHTVQSTEKQEQRNSIINSSLESVSSNPNSILNSSSSLQPNMNSSDPDLAVVKPTRPNSLPPNPSPTSPLSPSWPMFSAPSSPMPTSSTSSDSSPVSTPFRKAKALYACKAEHDSELSFTAGTVFDNVHPSQEPGWLEGTLNGKTGLIPENYVEFL
Take B1: the binding result in assay [1] and in assay [2] was “binds” in each case.
